Reference: PubChem BioAssay AID1159584 (Peter MacCallum Cancer Centre, 2016)
Screen: 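Knock-downs that harm CDH1-null cells more than parental MCF10A cells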 (primary screen). Cells: human MCF10A breast epithelial cells, parental and CDH1-null. Reagents: siRNA against human genes. Measurement: 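Cell viability by CellTiter-Glo ATP luminescence, each line scaled to the mean of mock wells across plates, then CDH1-null over parental ratio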. Direction: CDH1-null / parental viability ratio: higher = CDH1-null cells survive relatively better than parental; CDH1-null viability vs mock: higher = more viable CDH1-null cells.
Here is one part, drawn at random, of about 18,000 reagents. Not all columns of the deposit are shown. Not given: the amount of reagent, the time to read-out.

Silencing of BNC2 resulted in: CDH1-null / parental viability ratio 0.75; CDH1-null viability vs mock (fraction of mock) = 0.6.
With knock-down of EIF3A, the record shows CDH1-null / parental viability ratio 1; CDH1-null viability vs mock (fraction of mock) = 0.52.
Depletion of ZNF134 came out at: CDH1-null / parental viability ratio 0.77; CDH1-null viability vs mock (fraction of mock) = 0.58.
With knock-down of TST, the record shows CDH1-null / parental viability ratio 1; CDH1-null viability vs mock (fraction of mock) = 0.66.
CENPM showed CDH1-null / parental viability ratio 1.24; CDH1-null viability vs mock (fraction of mock) = 0.67.
After knock-down of GRHPR, the screen gave CDH1-null / parental viability ratio 1.35; CDH1-null viability vs mock (fraction of mock) = 0.7.
Against SERPINA3, the entry reads CDH1-null / parental viability ratio 0.93; CDH1-null viability vs mock (fraction of mock) = 0.67.
Against ACOT6 the deposit lists CDH1-null / parental viability ratio 1.11; CDH1-null viability vs mock (fraction of mock) = 0.88.
CBLN3 gave CDH1-null / parental viability ratio 1.16; CDH1-null viability vs mock (fraction of mock) = 0.79.
Silencing of RUVBL1 gave: CDH1-null / parental viability ratio 0.94; CDH1-null viability vs mock (fraction of mock) = 0.87.
SDR39U1 scored CDH1-null / parental viability ratio 1.06; CDH1-null viability vs mock (fraction of mock) = 0.73.
Knock-down of BPY2C resulted in: CDH1-null / parental viability ratio 1.1; CDH1-null viability vs mock (fraction of mock) = 0.78.
With knock-down of WDR75, the screen gave CDH1-null / parental viability ratio 0.96; CDH1-null viability vs mock (fraction of mock) = 0.65.
Knock-down of EPDR1 came out at: CDH1-null / parental viability ratio 0.89; CDH1-null viability vs mock (fraction of mock) = 0.62.
For GNAL, the entry reads CDH1-null / parental viability ratio 0.77; CDH1-null viability vs mock (fraction of mock) = 0.5.
With knock-down of CSNK2B the results were CDH1-null / parental viability ratio 1.05; CDH1-null viability vs mock (fraction of mock) = 0.97.
Against CCT6B the deposit lists CDH1-null / parental viability ratio 0.94; CDH1-null viability vs mock (fraction of mock) = 0.9.
Knock-down of RBAKDN resulted in: CDH1-null / parental viability ratio 0.84; CDH1-null viability vs mock (fraction of mock) = 0.67.
Against CACNG1, the values are CDH1-null / parental viability ratio 1.09; CDH1-null viability vs mock (fraction of mock) = 0.89.
For CCDC162P, the values are CDH1-null / parental viability ratio 1.06; CDH1-null viability vs mock (fraction of mock) = 0.7.
For SLC6A19 the deposit lists CDH1-null / parental viability ratio 1.01; CDH1-null viability vs mock (fraction of mock) = 1.04.
SLC22A12 gave CDH1-null / parental viability ratio 1.11; CDH1-null viability vs mock (fraction of mock) = 1.08.
Depletion of BDKRB2 gave: CDH1-null / parental viability ratio 1.36; CDH1-null viability vs mock (fraction of mock) = 1.06.
For PDE4D, the values are CDH1-null / parental viability ratio 1.11; CDH1-null viability vs mock (fraction of mock) = 1.
Against SLC25A22 the deposit lists CDH1-null / parental viability ratio 1.33; CDH1-null viability vs mock (fraction of mock) = 0.6.
NRXN1 showed CDH1-null / parental viability ratio 1.08; CDH1-null viability vs mock (fraction of mock) = 0.96.
With knock-down of MCM5, the record shows CDH1-null / parental viability ratio 1.13; CDH1-null viability vs mock (fraction of mock) = 0.78.
With knock-down of SUN2 the results were CDH1-null / parental viability ratio 0.76; CDH1-null viability vs mock (fraction of mock) = 0.58.
With knock-down of PRPF31, the screen gave CDH1-null / parental viability ratio 1.36; CDH1-null viability vs mock (fraction of mock) = 0.45.
After knock-down of COL4A1, the screen gave CDH1-null / parental viability ratio 1.14; CDH1-null viability vs mock (fraction of mock) = 1.
Against HYPK, the values are CDH1-null / parental viability ratio 1.03; CDH1-null viability vs mock (fraction of mock) = 0.6.
For DPY19L4, the entry reads CDH1-null / parental viability ratio 0.94; CDH1-null viability vs mock (fraction of mock) = 0.9.
SIX6 showed CDH1-null / parental viability ratio 1; CDH1-null viability vs mock (fraction of mock) = 0.57.
Against NMNAT1 the deposit lists CDH1-null / parental viability ratio 0.93; CDH1-null viability vs mock (fraction of mock) = 0.78.
DTWD2 showed CDH1-null / parental viability ratio 1.02; CDH1-null viability vs mock (fraction of mock) = 0.92.
For PAF1, the entry reads CDH1-null / parental viability ratio 0.96; CDH1-null viability vs mock (fraction of mock) = 0.48.
S100PBP showed CDH1-null / parental viability ratio 1.1; CDH1-null viability vs mock (fraction of mock) = 0.46.
For LRRC3, the entry reads CDH1-null / parental viability ratio 0.92; CDH1-null viability vs mock (fraction of mock) = 0.36.
Against B4GAT1, the entry reads CDH1-null / parental viability ratio 0.97; CDH1-null viability vs mock (fraction of mock) = 0.76.
Against DCLK2, the entry reads CDH1-null / parental viability ratio 0.99; CDH1-null viability vs mock (fraction of mock) = 0.71.
Depletion of RPL37A resulted in: CDH1-null / parental viability ratio 1.35; CDH1-null viability vs mock (fraction of mock) = 0.35.
CIB2 showed CDH1-null / parental viability ratio 0.89; CDH1-null viability vs mock (fraction of mock) = 0.62.
FAM218A gave CDH1-null / parental viability ratio 1.26; CDH1-null viability vs mock (fraction of mock) = 0.93.
After knock-down of CT47A4, the screen gave CDH1-null / parental viability ratio 1.07; CDH1-null viability vs mock (fraction of mock) = 0.6.
CACNA1H showed CDH1-null / parental viability ratio 1.11; CDH1-null viability vs mock (fraction of mock) = 0.89.
